Results published in US7951549B2, “Methods for the identification of agents that inhibit mesenchymal-like tumor cells or their formation” (OSI Pharmaceuticals, Inc., priority 2008, dated 2011).
For at least one compound, name, drawing or mass did not settle the structure.

Test system: H358 cells
Assay: Ligand-induced EMT in H358 cells with pharmacological inhibitors (Western blot markers, morphology)
Format: cell-based, human
Settings: inhibitor and ligand for 7 days
Method: EMD Biosciences #444937), JAK inhibitor 1 (“JAKi”; EMD Biosciences #420099), and LY294002 (PI3K inhibitor (PI3Ki); EMD Biosciences #440202) were used in the concentrations indicated. Cells were treated with inhibitor 30 minutes prior to ligand stimulation. Medium, inhibitor and ligand were refreshed on experimental day 3 to 4. Cell lines were treated as indicated in the text and figure legends. Cell lysates were prepared in RIPA buffer (Sigma, #R0278) containing protease (Sigma #P8340) and phosphatase (Sigma, #P5726) inhibitors. Protein concentration was determined by micro-BCA assay (Pierce, #23227). Protein immunodetection was performed by electrophoretic transfer of SDS-PAGE separated proteins to nitrocellulose, incubation with antibody and chemiluminescent second step detection (PicoWest; Pierce, #34078). The antibodies used were: E-cadherin (sc21791), N-cadherin (#7939), ErbB3 (sc285), GAPDH (#25778) and Zeb1 (#25388), all from Santa Cruz Biotechnology; vimentin (BD550513) and fibronectin (BD610077; both from BD Biosciences); β-actin (Sigma, #A5441).

O=c1cc(N2CCOCC2)oc2c(-c3ccccc3)cccc12 [PI3 kinase inhibitor, LY294002]
marker changes induced by all OSM ligand treatments (FIG. 11 legend): blocks
morphology changes induced by HGF+OSM (FIG. 11 legend): blocks
HGF+OSM marker and morphological changes: partial block
changes to E-cadherin or vimentin with OSM and OSM+TGFβ: without corresponding changes
morphological changes induced by OSM and OSM+TGFβ: blocked
